Among all 340,000 compounds or so, about 170 (0.05%) were called active. Inconclusive means that the source gave no clear call. Such entries were picked first, then a sample of the others. Calls follow the shape of the dose curve; as a rule, active = well fitted inhibition curve with a large enough effect in the signal ratio, with a control signal flat (not every such curve was filed as active); inconclusive = small, poorly fitted or top-dose-only effect, or effect the other way, or a change in a side signal; inactive = flat fitted curve, though single readings scatter; the % refers to the signal ratio. Potencies beside an inconclusive call are fits to weak or partial responses and may not hold up.
Experiment: qHTS Assay to Find Inhibitors of Chronic Active B-Cell Receptor Signaling;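 as to activity change, negative = inhibition: plate controls were basal doxycycline-induced cells for no effect and cells given 10 µM MG132 for full effect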
Conditions: ABC-DLBCL IkBa-CBG/CBR reporter, luminescence ratio (green luciferase fused to IkBa over red control in TMD8 lymphoma cells), 4 h; activity change, negative = inhibition: at 46.1 µM (top of the series) unless noted
In short: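 Compounds up to 46 uM were incubated four hours with TMD8 cells whose green CBG68 luciferase is fused to IkappaBalpha; red CBR luminescence normalised the signal, and concentration-effect curves were fitted to fusion, red and ratio data.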
Potency is read from the fitted curve at half-maximal effect.

SMILES	activity change, negative = inhibition	Potency
COc1ccc(C(=O)C2CCCN(C(=O)c3ccc4cc[nH]c4c3)C2)c(C)c1 (stereo not given)	inconclusive: -0.162%	–
CC1CCc2sc(C(=O)NN)cc2C1 (stereo not given)	–	inconclusive: 15.8 µM [cytotoxic, partial curve]
Cc1cnc(NC(=O)Cc2c[nH]c3ccccc23)s1	inconclusive: 0.0382%	–
COc1cc(-c2ncc3ccccn23)cc(OC)c1OC	inconclusive: 10.4%	–
CC1(C)Cc2c(sc(NC(=O)c3ccc(C(=O)c4ccccc4)cc3)c2C#N)C(C)(C)N1	inactive: 1.44%	–
NC(=O)c1cc2ccccc2o/c1=N\NC(=O)c1ccncc1	inactive: 2.5%	–
COc1ccc(-c2noc(C)c2-c2ccc3ccccc3n2)c(O)c1	inactive: -15.3%	–
CC1(C)Oc2ccc(C(=O)NC3CCCC3)cc2N(CC(=O)N2CCOCC2)C1=O	inconclusive: -4.01%	–
CCc1ccc(OCCCC(=O)O)c(Br)c1	inconclusive: 13.5%	–
CCOC(=O)N1CCC(NC(=O)CN(C)S(=O)(=O)c2cc3c(cc2Cl)NC(=O)CO3)CC1	inconclusive: 11.5%	–
O=C(Nc1nc(-c2ccccc2)cs1)c1cccs1	–	inconclusive: 25.1 µM [falling, single point]
Cc1nnc(N/N=C/c2cc(C)n(-c3ccc(F)cc3)c2C)n1N	–	inconclusive: 29.1 µM [falling, partial curve, poor fit]
CCn1cc([N+](=O)[O-])c(C(=O)N2N=C(c3ccc4ccccc4c3)CC2c2ccccc2O)n1 (stereo not given)	–	inconclusive: 5.8 µM [falling, partial curve]
Cc1ccc2nc(Nc3nc(C)cc(-c4ccccc4)n3)[nH]c(=O)c2c1	–	inconclusive: 31.6 µM [falling, single point]
O=C(Nc1ccccn1)c1ccc(Cl)c(S(=O)(=O)N2CCCCCC2)c1	inconclusive: 9.18%	–
COc1cc(/C=N/NC(=O)c2ccc(-c3ccccc3)cc2)cc(OC)c1OC	inactive: -0.29%	–
CC1CCN(CCNC(=O)C2CCCN(c3ncnc4c3nc3n4CCCCC3)C2)CC1 (stereo not given)	inconclusive: -6.84%	–
Nc1nccc(-c2ccc(-n3cnc4ccccc43)cc2)n1	–	inconclusive: 25.1 µM [falling, single point]
c1ccc2c(Nc3nc(N4CCOCC4)c4ccccc4n3)cccc2c1	–	inconclusive: 20.6 µM [falling, single point]
O=C(Nc1ccc(S(=O)(=O)Nc2nccs2)cc1)c1cnc(Cl)c(Cl)c1	–	inconclusive: 3.98 µM [rising, partial curve, poor fit]
Cc1cccc(CC(=O)N2CCN=C2SCc2ccc([N+](=O)[O-])cc2)c1	–	inconclusive: 29.1 µM [falling, single point]
CC(C(=O)N(C)C)N(C#N)c1nc(N(C)C)nc(N(C)C)n1 (stereo not given)	inconclusive: 3.66%	–
CN(C(=O)c1ccc(N2CCCCC2)c([N+](=O)[O-])c1)C1CCS(=O)(=O)C1 (stereo not given)	inconclusive: 10.3%	–
O=C(NCCc1c[nH]c2ccccc12)C1CCC(Cn2c(=S)[nH]c3ccccc3c2=O)CC1 (stereo not given)	inactive: 9.58%	–
COc1ccccc1NC(=O)CN(c1ccc(C)cc1)S(=O)(=O)c1c(C)n[nH]c1C	inconclusive: -23.9%	–

3 consecutive records out of the list so far:
SMILES	activity change, negative = inhibition	Potency
Cc1nnc(N/N=C/c2cc(C)n(-c3ccc(F)cc3)c2C)n1N	–	inconclusive: 29.1 µM [falling, partial curve, poor fit]
CCn1cc([N+](=O)[O-])c(C(=O)N2N=C(c3ccc4ccccc4c3)CC2c2ccccc2O)n1 (stereo not given)	–	inconclusive: 5.8 µM [falling, partial curve]
Cc1ccc2nc(Nc3nc(C)cc(-c4ccccc4)n3)[nH]c(=O)c2c1	–	inconclusive: 31.6 µM [falling, single point]

Carrying on.

SMILES	activity change, negative = inhibition	Potency
Cc1oc2c(c1C(=O)NCCO)CCCC2	–	inconclusive: 23.1 µM [rising, single point]
CC(C)Cc1ccc(C(C)C(=O)Nc2ccc(O)cc2)cc1 (stereo not given)	inconclusive: -0.414%	–
COC(=O)c1c(NC(=O)C2CCCO2)sc2c1CCC2 (stereo not given)	inconclusive: 16.8%	–
CCc1ccc(C(=O)NNc2ccccc2F)cc1	–	inconclusive: 22.4 µM [falling, partial curve, poor fit]
CC(=O)Nc1ccc(N2CCN(C(C)=O)CC2)cc1	inconclusive: -0.238%	–
Cc1n[nH]c(C)c1S(=O)(=O)N(C)Cc1ccco1	inactive: 0.54%	–
Cn1cccc1C(=S)N=P(C1CCCCC1)(N1CCOCC1)N1CCOCC1	inactive: 0.708%	–
Cc1oc(-c2cccc(Cl)c2)nc1CS(=O)(=O)CC(=O)NCCN1CCOCC1	inactive: 7.67%	–
Oc1ccc(Cl)cc1CNc1cnc2ccccc2c1	inactive: 0.704%	–
COc1ccc2c(c1)c(CC(=O)OCC(=O)O)c(C)n2C(=O)c1ccc(Cl)cc1	–	inconclusive: 22.4 µM [falling, partial curve]
CCCSc1nc(=O)n2cc(C)ccc2n1	–	inconclusive: 29.1 µM [falling, single point]
Cc1[nH][nH]c(=O)c1C(c1ccc(-c2cccc(Cl)c2)o1)c1c(C)[nH][nH]c1=O	inconclusive: -1.45%	–
CC(=O)Nc1ccc(NC(=O)c2nc(S(=O)(=O)Cc3ccccc3)ncc2Cl)cc1	inconclusive: 28.4%	–
N=c1c(S(=O)(=O)c2ccc(Br)cc2)cc2c(=O)n3ccccc3nc2n1C1CCCCC1	inconclusive: 0.753%	–
Cc1ccc(C(=O)N/C(=C\c2ccc(-c3cccc([N+](=O)[O-])c3)o2)C(=O)NCCCN2CCOCC2)cc1	inconclusive: 5.76%	–
CCN(C(=O)c1nn(-c2ccc(OC)cc2)c(=O)c2c1c1ccccc1n2C)c1ccc(OC)cc1	inconclusive: -7.11%	–
O=c1c2c(-c3cccs3)csc2ncn1-c1ccc(Br)cc1	inconclusive: 6.24%	–
O=C(Nc1ccccc1)c1cccnc1N1CCOCC1	inconclusive: 14.5%	–
Cc1csc(NC(=S)NC(=O)c2ccccc2)n1	–	inconclusive: 31.6 µM [cytotoxic, single point]
COCCCn1c(=S)[nH]c2ccc(N3CCOCC3)cc2c1=O	–	inconclusive: 7.31 µM [falling, partial curve, poor fit]
CCC(C)Nc1nc(N)c([N+](=O)[O-])c(NCCO)n1 (stereo not given)	inconclusive: 6.99%	–
CCN(CC(=O)NC1CCCC1)S(=O)(=O)c1ccc(F)cc1	inconclusive: 2.72%	–
O=C1CSC(c2cccc([N+](=O)[O-])c2)N1c1ccccc1 (stereo not given)	inconclusive: -10.4%	–
CCOC(=O)C1=C(c2ccccc2)c2ccc(OC)cc2N(S(=O)(=O)C(F)(F)F)C1C(=O)OCC (stereo not given)	inactive: -7.02%	–
CCCCn1c(N)c(N(CC(C)C)C(=O)c2cc3c(s2)CCCCC3)c(=O)[nH]c1=O	inconclusive: 17.8%	–

— PubChem BioAssay AID493014 (National Center for Advancing Translational Sciences (NCATS), 2011)
